Source: paper PMC7862700
The entries are a selection whose mix differs from that of the whole data set. For part of these data: At the low end of the ranking, values are background and their order means little. Some of the results follow. For part of these data: Construct or isoform of the protein are uncertain.

By UniProt entry, the sequences of proteins in these tests, tags left out. Where a name states a change or a piece, a line headed by the entry shows the natural chain unless it says otherwise.
UniProt Q00613: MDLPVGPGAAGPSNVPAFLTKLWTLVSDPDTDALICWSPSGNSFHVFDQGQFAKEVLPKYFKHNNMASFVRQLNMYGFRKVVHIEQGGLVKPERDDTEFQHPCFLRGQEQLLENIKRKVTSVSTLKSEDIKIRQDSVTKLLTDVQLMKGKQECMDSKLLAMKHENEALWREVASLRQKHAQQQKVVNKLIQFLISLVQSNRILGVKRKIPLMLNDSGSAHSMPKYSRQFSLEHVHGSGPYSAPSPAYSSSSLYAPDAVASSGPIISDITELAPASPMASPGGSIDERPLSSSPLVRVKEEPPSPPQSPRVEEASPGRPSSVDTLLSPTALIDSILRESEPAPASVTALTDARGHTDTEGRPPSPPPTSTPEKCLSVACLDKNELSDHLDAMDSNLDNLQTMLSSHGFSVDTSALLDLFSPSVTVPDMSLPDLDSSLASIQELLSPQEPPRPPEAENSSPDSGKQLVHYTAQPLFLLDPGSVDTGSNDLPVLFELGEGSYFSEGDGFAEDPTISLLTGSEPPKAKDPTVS

What was measured:
HSF1 = HSF1 (UniProt Q00613); test: DAPPL (digital affinity profiling via proximity ligation, sequencing); settings: 10 mM Tris-HCl pH 7.5, 50 mM NaCl, 1 mM DTT, 4% glycerol, room temperature, 30 min; GST-TFs on glutathione beads, 16-mer random dsDNA library, 0.1% …; high values mean tight binding; double strand, one strand shown; scale: fold enrichment (6-mer frequency, TF over GST control)
ELF2 = target: T1, ELF2 (UniProt Q15723); test: as above; settings: 10 mM Tris-HCl pH 7.5, 50 mM NaCl, 1 mM DTT, 4% glycerol, room temperature, 30 min; GST-TFs on glutathione beads, 16-mer random dsDNA library, 0.1% …; high values mean tight binding; double strand, one strand shown; scale: fold enrichment (6-mer frequency, TF over GST control)
T1 sequence: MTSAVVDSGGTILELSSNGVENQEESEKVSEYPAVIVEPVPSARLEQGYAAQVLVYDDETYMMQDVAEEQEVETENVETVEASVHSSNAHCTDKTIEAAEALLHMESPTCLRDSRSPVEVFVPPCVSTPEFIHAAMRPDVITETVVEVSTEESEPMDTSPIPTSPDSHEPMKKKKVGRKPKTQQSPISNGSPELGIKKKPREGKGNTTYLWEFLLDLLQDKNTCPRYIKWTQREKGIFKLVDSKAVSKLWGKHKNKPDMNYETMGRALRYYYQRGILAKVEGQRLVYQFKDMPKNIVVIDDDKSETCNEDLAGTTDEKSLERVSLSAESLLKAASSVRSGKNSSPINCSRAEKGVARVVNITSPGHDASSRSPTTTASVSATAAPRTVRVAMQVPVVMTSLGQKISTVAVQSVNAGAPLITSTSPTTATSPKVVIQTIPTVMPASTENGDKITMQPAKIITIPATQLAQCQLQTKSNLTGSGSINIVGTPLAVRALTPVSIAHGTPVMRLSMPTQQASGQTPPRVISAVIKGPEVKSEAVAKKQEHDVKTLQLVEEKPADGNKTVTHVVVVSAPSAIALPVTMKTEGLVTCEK

Sequence | binding signal (HSF1) | binding signal (ELF2)
AGGACG | 0.404 | 0.468
GTAGAC | 0.611 | 0.75
CGTGTT | 0.711 | 0.835
ATAGGA | 0.789 | 0.918
CGGAGG | 0.225 | 0.272
GAGTCA | 0.255 | 0.272
